# Data taken from patent US6340573B1, “Chromogenic substrates for detecting bacterial hydrolases” (Bio Merieux, priority 1998, dated 2002).
# Test system: Alanine-aminopeptidase
# Experiment: GRAM identification with impregnated bottle brush
# Assay type: cell-based, Gram-negative bacteria
# Details: P. aeruginosa, of four (4) strains
# From the text: According to a representative example, the GRAM identification process uses a substrate based on aminobenzene or a derivative thereof, such as DiMethyl-paraPhenyleneDiamine (DMpPD). In the example which follows, the substrate consists of Alanine-Dimethyl-paraPhenyleneDiamine (AlaDMpPD).
# It functions as follows. Enzymatic hydrolysis causes release of the DMpPD group. Next, the DMPD binds with α-naphthol (or a derivative) by oxidative coupling facilitated by an oxidizing agent, potassium ferricyanide (K3Fe(CN)6). This then causes formation of a violet-gray complex.
# Another device has been defined, which is even more specific in Gram identification and which can also be used with blood agars of Columbia type. It consists of:
# a medium consisting of a blood agar of Columbia type (with or without AlaDMpPD), and
# a reaction mixture which impregnates a bottle brush and which is constituted on the basis of α-naphthol, potassium ferricyanide and AlaDMpPD and then dried.
# This reaction mixture contained in the bottle brush was further improved by adding a step of drying the bottle brushes, which facilitates their subsequent manipulation.
# The exact composition is as follows:
# for the agar, presence or absence of AlaDMpPD at 0.075 gram per liter (g/l), and
# α-naphthol from 0.01 to 5 g/l, preferably from 0.1 to 1 g/l, and for example 0.5 g/l, […]
substance,measurement,value
Alanine-Dimethyl-paraPhenyleneDiamine [AlaDMpPD],"false negatives, number of strains",2
